Data: the M2OR odorant receptor database
The entries are a selection whose mix differs from that of the whole data set. Calls are pooled over several reports, among them a noisy single-well screen. The list shows a part of the results.

Protein sequences, listed by entry. Tags and fused reporters are not part of them. Chains listed by the source or under a name are the forms on record and can include a tag or linker.
UniProt Q9R0K2, as listed by the source: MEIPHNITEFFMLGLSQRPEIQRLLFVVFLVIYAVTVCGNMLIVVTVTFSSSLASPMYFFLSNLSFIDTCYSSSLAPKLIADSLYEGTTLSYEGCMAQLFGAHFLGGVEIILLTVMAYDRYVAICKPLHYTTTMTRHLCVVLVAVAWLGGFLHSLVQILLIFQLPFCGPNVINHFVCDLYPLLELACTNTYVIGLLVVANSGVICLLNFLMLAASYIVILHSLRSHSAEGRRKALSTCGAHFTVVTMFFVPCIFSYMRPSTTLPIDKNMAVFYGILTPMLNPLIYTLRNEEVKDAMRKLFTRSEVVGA
UniProt Q9WVD9, as listed by the source: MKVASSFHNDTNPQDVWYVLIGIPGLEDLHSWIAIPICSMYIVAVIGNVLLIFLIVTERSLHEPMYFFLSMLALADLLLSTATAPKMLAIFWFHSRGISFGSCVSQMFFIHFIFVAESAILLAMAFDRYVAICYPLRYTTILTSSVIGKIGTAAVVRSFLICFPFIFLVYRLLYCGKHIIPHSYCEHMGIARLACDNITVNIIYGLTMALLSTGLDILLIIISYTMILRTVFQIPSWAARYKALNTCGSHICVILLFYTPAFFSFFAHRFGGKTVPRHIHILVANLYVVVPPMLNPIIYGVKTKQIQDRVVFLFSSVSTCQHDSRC

Experiments:
Details in all cases: stereoisomer not certain
UniProt Q8VGZ7 = molecular target: T1, UniProt Q8VGZ7
T1 sequence (whole entry): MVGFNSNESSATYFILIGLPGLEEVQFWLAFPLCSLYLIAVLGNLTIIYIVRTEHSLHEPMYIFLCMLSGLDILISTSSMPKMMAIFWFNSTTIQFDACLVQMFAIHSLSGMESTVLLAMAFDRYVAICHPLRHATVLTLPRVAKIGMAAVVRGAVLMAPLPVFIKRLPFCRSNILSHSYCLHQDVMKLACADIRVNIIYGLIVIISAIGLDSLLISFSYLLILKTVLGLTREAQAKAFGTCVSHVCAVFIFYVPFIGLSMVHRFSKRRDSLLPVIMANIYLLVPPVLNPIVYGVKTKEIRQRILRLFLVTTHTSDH
In short: (§1)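 Assay methods differ from source to source, frequently being transient luciferase assays in mammalian cell lines. For each receptor–molecule pair, the label responsive (active) applies when the original authors judged the measured signal statistically different from baseline, and non-responsive (inactive) applies otherwise.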

UniProt Q8VH16 = molecular target: T2, UniProt Q8VH16
T2 sequence (whole entry): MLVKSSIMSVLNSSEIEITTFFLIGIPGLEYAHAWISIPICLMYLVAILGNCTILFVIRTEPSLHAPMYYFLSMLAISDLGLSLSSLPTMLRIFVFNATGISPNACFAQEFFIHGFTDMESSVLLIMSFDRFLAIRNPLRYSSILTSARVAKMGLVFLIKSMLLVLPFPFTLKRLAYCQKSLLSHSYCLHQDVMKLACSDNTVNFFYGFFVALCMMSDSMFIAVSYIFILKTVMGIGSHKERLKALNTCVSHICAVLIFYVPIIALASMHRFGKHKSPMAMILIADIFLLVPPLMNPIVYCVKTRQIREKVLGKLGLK
In short: as §1

UniProt Q8VH20 = molecular target: T3, UniProt Q8VH20
T3 sequence (whole entry): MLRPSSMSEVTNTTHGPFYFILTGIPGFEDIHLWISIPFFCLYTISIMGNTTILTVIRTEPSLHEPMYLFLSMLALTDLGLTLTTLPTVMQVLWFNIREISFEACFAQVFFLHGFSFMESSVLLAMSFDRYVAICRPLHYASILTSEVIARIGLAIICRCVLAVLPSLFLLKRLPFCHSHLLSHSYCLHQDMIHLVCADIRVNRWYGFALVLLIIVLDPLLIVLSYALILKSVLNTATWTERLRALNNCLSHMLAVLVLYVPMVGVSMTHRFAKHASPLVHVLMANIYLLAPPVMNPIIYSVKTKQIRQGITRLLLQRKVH
In short: as §1

UniProt Q8VH21 = molecular target: T4, UniProt Q8VH21
T4 sequence (whole entry): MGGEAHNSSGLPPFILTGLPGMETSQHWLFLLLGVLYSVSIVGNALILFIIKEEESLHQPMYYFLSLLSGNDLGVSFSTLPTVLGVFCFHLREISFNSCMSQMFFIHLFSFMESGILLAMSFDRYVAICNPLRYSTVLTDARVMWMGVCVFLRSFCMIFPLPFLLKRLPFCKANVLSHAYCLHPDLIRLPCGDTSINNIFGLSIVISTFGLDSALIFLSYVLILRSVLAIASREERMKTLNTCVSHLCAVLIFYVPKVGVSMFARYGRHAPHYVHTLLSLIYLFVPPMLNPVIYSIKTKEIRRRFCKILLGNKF
In short: as §1

UniProt Q920P2 = molecular target: T5, UniProt Q920P2
T5 sequence (whole entry): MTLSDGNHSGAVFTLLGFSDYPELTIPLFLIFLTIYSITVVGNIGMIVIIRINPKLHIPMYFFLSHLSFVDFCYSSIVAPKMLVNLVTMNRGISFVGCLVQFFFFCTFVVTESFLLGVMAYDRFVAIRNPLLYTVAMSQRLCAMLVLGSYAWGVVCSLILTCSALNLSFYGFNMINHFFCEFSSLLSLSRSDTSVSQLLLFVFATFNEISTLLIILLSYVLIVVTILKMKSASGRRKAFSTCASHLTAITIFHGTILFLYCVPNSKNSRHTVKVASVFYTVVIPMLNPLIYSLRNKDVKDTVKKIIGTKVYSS
In short: as §1

UniProt Q924H8 = molecular target: T6, UniProt Q924H8
T6 sequence (whole entry): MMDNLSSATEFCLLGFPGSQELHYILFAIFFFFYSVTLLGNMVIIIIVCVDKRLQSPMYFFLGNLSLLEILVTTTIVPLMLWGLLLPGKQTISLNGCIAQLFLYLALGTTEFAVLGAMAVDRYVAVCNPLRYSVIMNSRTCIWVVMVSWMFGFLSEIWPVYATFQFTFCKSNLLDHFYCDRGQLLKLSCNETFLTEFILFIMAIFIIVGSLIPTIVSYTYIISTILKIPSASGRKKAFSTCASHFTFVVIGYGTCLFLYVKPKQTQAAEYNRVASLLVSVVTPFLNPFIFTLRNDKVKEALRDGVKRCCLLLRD
In short: as §1

UniProt Q920P1 = molecular target: T7, UniProt Q920P1
T7 sequence (whole entry): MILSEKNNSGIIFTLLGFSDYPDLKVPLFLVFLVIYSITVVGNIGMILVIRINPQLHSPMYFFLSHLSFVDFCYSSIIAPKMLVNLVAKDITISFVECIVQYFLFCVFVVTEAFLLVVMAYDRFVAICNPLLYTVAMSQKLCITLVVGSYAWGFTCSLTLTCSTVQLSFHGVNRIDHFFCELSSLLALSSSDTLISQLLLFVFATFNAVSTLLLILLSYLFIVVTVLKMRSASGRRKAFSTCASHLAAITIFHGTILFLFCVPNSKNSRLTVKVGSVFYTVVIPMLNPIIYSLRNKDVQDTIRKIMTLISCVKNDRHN
In short: as §1

UniProt Q8VH10 = molecular target: T8, UniProt Q8VH10
T8 sequence (whole entry): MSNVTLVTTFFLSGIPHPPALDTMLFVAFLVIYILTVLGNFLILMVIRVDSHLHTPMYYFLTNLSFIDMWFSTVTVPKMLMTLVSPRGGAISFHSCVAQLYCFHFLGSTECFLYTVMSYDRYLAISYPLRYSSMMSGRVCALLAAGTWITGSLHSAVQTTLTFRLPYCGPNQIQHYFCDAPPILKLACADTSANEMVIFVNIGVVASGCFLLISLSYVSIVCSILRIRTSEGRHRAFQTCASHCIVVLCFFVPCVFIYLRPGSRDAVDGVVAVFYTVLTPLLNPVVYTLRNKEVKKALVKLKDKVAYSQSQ
In short: as §1

UniProt Q8VH18 = molecular target: T9, UniProt Q8VH18
T9 sequence (whole entry): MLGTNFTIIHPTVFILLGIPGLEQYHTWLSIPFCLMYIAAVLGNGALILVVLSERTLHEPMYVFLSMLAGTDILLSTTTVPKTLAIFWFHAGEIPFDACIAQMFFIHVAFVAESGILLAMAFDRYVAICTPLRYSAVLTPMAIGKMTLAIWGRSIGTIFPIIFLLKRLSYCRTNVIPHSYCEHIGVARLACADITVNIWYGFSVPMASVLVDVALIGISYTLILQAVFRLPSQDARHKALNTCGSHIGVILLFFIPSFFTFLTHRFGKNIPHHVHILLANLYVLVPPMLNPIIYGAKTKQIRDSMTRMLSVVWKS
In short: as §1

UniProt Q99NH4 = molecular target: T10, UniProt Q99NH4
T10 sequence (whole entry): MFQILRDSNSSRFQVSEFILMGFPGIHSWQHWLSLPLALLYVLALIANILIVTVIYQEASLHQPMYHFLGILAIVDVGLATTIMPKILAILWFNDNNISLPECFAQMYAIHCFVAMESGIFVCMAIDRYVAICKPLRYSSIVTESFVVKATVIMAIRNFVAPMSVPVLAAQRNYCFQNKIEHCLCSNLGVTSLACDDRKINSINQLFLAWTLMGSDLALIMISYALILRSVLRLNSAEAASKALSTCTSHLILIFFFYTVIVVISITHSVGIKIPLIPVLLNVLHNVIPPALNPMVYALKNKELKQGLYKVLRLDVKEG
In short: as §1

UniProt Q9EPN9 = molecular target: T11, UniProt Q9EPN9
T11 sequence (whole entry): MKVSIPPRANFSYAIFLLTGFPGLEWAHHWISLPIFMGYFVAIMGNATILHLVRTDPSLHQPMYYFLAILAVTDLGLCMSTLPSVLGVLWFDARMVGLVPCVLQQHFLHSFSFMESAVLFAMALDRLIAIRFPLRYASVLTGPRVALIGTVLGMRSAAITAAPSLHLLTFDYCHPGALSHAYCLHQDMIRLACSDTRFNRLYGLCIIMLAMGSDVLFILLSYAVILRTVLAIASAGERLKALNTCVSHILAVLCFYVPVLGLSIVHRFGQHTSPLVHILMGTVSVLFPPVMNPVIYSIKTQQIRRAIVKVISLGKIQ
In short: as §1

UniProt Q9R0K2 = molecular target: UniProt Q9R0K2
In short: as §1

UniProt Q9WU86 = molecular target: T12, UniProt Q9WU86
T12 sequence (whole entry): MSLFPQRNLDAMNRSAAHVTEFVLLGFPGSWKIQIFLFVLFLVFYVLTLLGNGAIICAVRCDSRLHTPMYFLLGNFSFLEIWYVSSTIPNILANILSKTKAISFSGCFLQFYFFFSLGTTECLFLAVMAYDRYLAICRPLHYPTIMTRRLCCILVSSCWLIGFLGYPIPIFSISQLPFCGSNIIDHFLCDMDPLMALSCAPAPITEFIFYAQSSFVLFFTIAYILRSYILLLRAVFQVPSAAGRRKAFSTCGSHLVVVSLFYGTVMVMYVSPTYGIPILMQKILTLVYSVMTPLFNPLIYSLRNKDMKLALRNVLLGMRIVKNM
In short: as §1

UniProt Q9WU94 = molecular target: T13, UniProt Q9WU94
T13 sequence (whole entry): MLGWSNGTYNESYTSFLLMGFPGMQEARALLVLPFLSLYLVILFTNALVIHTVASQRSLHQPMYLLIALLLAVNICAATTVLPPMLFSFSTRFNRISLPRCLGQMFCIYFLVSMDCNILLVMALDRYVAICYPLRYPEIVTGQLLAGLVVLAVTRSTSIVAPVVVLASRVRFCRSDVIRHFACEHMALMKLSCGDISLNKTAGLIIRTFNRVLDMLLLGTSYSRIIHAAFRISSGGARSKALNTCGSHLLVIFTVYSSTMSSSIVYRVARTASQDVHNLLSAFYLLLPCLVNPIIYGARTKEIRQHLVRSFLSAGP
In short: as §1

UniProt Q9WVD9 = molecular target: UniProt Q9WVD9
In short: as §1

UniProt Q9WVN5 = molecular target: T14, UniProt Q9WVN5
T14 sequence (whole entry): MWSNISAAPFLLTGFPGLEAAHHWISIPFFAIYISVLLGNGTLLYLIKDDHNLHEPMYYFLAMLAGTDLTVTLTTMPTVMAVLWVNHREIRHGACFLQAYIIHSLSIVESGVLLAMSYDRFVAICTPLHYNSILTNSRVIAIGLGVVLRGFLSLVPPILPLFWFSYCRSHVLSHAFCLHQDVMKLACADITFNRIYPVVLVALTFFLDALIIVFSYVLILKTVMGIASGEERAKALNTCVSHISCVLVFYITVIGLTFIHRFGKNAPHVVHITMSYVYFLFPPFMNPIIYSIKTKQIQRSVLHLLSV
In short: as §1

Measured: odorant receptor agonist call

COc1cc(C=O)ccc1O
active: UniProt Q920P2
inactive: UniProt Q8VGZ7 | UniProt Q8VH16 | UniProt Q8VH20 | UniProt Q8VH21 | UniProt Q924H8

C=CCc1ccc(OC(C)=O)c(OC)c1
inactive: UniProt Q920P1

c1cnccn1
inactive: UniProt Q8VGZ7 | UniProt Q8VH16 | UniProt Q8VH20 | UniProt Q8VH21 | UniProt Q924H8

CC(C)C=O
inactive: UniProt Q8VGZ7 | UniProt Q8VH16 | UniProt Q8VH20 | UniProt Q8VH21 | UniProt Q924H8

CC1COCc2cc3c(cc21)C(C)(C)C(C)C3(C)C (stereo unspecified)
inactive: UniProt Q8VGZ7 | UniProt Q8VH16 | UniProt Q8VH20 | UniProt Q8VH21 | UniProt Q924H8

CCCCCCC=O
not listed: UniProt Q920P2 | UniProt Q920P1
inactive: all other assays above

CCCCCCCCCC=O
not listed: UniProt Q920P2 | UniProt Q920P1 | UniProt Q8VH18 | UniProt Q9WU94
inactive: all other assays above

CCCCCCCCCCC=O
active: UniProt Q99NH4

CC(C)=CCCC(C)=CC=O
inactive: UniProt Q8VGZ7 | UniProt Q8VH16 | UniProt Q8VH20 | UniProt Q8VH21 | UniProt Q924H8

CCCCCOC(C)=O
inactive: UniProt Q8VGZ7 | UniProt Q8VH16 | UniProt Q8VH18 | UniProt Q8VH20 | UniProt Q8VH21 | UniProt Q924H8 | UniProt Q9WU94
